From the supplement of paper PMC6331611
± gives the standard deviation of the averaged measurements. The full ranking holds about 1,600 compounds; the median of “normalized intracellular growth (luminescence, IQM-normalized) in RAW264.7 macrophages” is about 1, and the lowest 2% start at about 0.43. This is one part of the list.

System: Salmonella enterica serovar Typhimurium SL1344
Test: normalized intracellular growth (luminescence, IQM-normalized) in RAW264.7 macrophages (fraction of plate interquartile mean); higher = more bacterial growth (less inhibition)
Conditions: 10 µM

Compound	normalized intracellular growth (time point: T3 (3 h))	normalized intracellular growth (time point: Tfinal (~6 h))
CC(C)c1c(CN(C)C(C)Cc2ccccc2)n(C)n(-c2ccccc2)c1=O (centres undefined)	1.05 ± 0.024	0.887 ± 0.045
O=c1[nH]c(=O)n(Cl)c(=O)n1Cl	0.948 ± 0.1	0.897 ± 0.093
NC(=O)CN1CCCC1=O	1.07 ± 0.075	1.17 ± 0.11
CC(C)C[C@H](CN)CC(=O)O	0.947 ± 0.012	0.952 ± 0.083
CN(C)C(=S)SSC(=S)N(C)C	1.14 ± 0.05	0.863 ± 0.0094
CCC(C)(C)O	0.918 ± 0.06	1.05 ± 0.043
CC(C)(C)NCC(O)c1ccccc1Cl (centres undefined)	0.984 ± 0.02	0.905 ± 0.097
COC(=O)C(c1ccccc1)C1CCCCN1 (centres undefined)	0.958 ± 0.041	1.06 ± 0.062
CO[C@]12C[C@@H](COC(=O)c3cncc(Br)c3)CN(C)[C@@H]1Cc1cn(C)c3cccc2c13	0.7 ± 0.05	0.918 ± 0.098
OC[C@@H](O)[C@H]1O[C@@H]2O[C@H](C(Cl)(Cl)Cl)O[C@@H]2[C@H]1O	1.01 ± 0.039	1.07 ± 0.077
C[N+]12CCC(CC1)C(OC(=O)C(O)(c1ccccc1)c1ccccc1)C2 (centres undefined)	0.944 ± 0.057	0.827 ± 0.032
CC(=O)[C@H]1CC[C@H]2[C@@H]3CC[C@@H]4C[C@H](O)CC[C@]4(C)[C@H]3CC[C@]12C	1.09 ± 0.032	0.865 ± 0.21
CC(CC(C(N)=O)(c1ccccc1)c1ccccc1)N(C)C (centres undefined)	1 ± 0.036	0.82 ± 0.15
CC1(C)C(C=C(Cl)Cl)C1C(=O)OCc1cccc(Oc2ccccc2)c1 (centres undefined)	1.12 ± 0.029	1.11 ± 0.24
O=[N+]([O-])c1ccc([As](=O)(O)O)cc1	0.971 ± 0.064	1.07 ± 0.15
CCN(C(C)=O)c1cccc(-c2ccnc3c(C#N)cnn23)c1	1.07 ± 0.12	1.03 ± 0.22
CC[C@H]1CN2CCc3cc(OC)c(OC)cc3[C@@H]2C[C@@H]1C[C@H]1NCCc2cc(OC)c(OC)cc21	1.1 ± 0.1	1.25 ± 0.16
COc1cc([C@@H]2c3cc4c(cc3[C@H](O)[C@H]3COC(=O)[C@H]23)OCO4)cc(OC)c1OC	0.92 ± 0.035	1.04 ± 0.066
Cc1ccc(O)cc1.Cc1cccc(O)c1.Cc1ccccc1O	0.945 ± 0.022	1.1 ± 0.034
CCNC1(c2cccs2)CCCCC1=O (centres undefined)	0.959 ± 0.023	0.585 ± 0.28
C[C@@H]1CC[C@H]2[C@@H](C)C(=O)O[C@@H]3O[C@@]4(C)CC[C@@H]1[C@]32OO4	1.02 ± 0.059	0.899 ± 0.095
CC[C@H]1[C@@H]2C[C@H]3[C@@H]4N(C)c5ccccc5[C@]45C[C@@H]([C@@H]2[C@H]5O)N3[C@@H]1O	1.07 ± 0.066	0.799 ± 0.035
O=C(NC(=O)c1c(F)cccc1F)Nc1cc(Cl)c(OC(F)(F)C(F)C(F)(F)F)cc1Cl (centres undefined)	1.04 ± 0.04	1.04 ± 0.11

3 entries already listed, ordered by SMILES length, descending:
Compound	normalized intracellular growth (time point: T3 (3 h))	normalized intracellular growth (time point: Tfinal (~6 h))
CC[C@H]1CN2CCc3cc(OC)c(OC)cc3[C@@H]2C[C@@H]1C[C@H]1NCCc2cc(OC)c(OC)cc21	1.1 ± 0.1	1.25 ± 0.16
O=C(NC(=O)c1c(F)cccc1F)Nc1cc(Cl)c(OC(F)(F)C(F)C(F)(F)F)cc1Cl (centres undefined)	1.04 ± 0.04	1.04 ± 0.11
CCNC1(c2cccs2)CCCCC1=O (centres undefined)	0.959 ± 0.023	0.585 ± 0.28

Later entries

Compound	normalized intracellular growth (time point: T3 (3 h))	normalized intracellular growth (time point: Tfinal (~6 h))
CNCC(=O)c1ccc(O)c(O)c1	0.988 ± 0.013	1.02 ± 0.061
COC(=O)C1=CCCN(C)C1	0.956 ± 0.012	0.845 ± 0.023
CC(C)(C)NCC(O)c1cc(Cl)c(N)c(Cl)c1 (centres undefined)	0.957 ± 0.024	0.991 ± 0.19
COc1cc2c(cc1OC)[C@@]13CCN4CC5=CCO[C@H]6CC(=O)N2[C@H]1[C@H]6[C@H]5C[C@H]43	1.03 ± 0.11	0.839 ± 0.19
O=C(N/N=C/c1ccc([N+](=O)[O-])o1)c1cc([N+](=O)[O-])cc([N+](=O)[O-])c1O	1.04 ± 0.024	1.03 ± 0.19
C[C@]12CC[C@H]3[C@@H](CC[C@@]45O[C@@H]4C(O)=C(C#N)C[C@]35C)[C@@H]1CC[C@@H]2O	0.972 ± 0.022	1.03 ± 0.14
COc1ccc(Cc2nccc3cc(OC)c(OC)cc23)cc1OC	1.04 ± 0.031	0.881 ± 0.29
CCC1(CC)C(=O)C=CNC1=O	0.983 ± 0.025	0.937 ± 0.076
CC1(C)C(C=C(Cl)Cl)C1C(=O)OC(C#N)c1cccc(Oc2ccccc2)c1 (centres undefined)	1.01 ± 0.053	1.02 ± 0.13
Oc1cc(Cl)ccc1Oc1ccc(Cl)cc1Cl	0.343 ± 0.083	0.256 ± 0.12
COc1ccc(CCN2CCC(Nc3nc4ccccc4n3Cc3ccc(F)cc3)CC2)cc1	0.916 ± 0.036	1.11 ± 0.091
CC(=O)O[C@H]1C[C@H](O[C@H]2[C@@H](O)C[C@H](O[C@H]3[C@@H](O)C[C@H](O[C@H]4CC[C@@]5(C)[C@H](CC[C@@H]6[C@@H]5C[C@@H](O)[C@]5(C)[C@@H](C7=CC(=O)OC7)CC[C@]65O)C4)O[C@@H]3C)O[C@@H]2C)O[C@H](C)[C@H]1O[C@@H]1O[C@H](CO)[C@@H](O)[C@H](O)[C@H]1O	0.935 ± 0.04	1.09 ± 0.086
CCN1C[C@]2(COC)[C@H](O)C[C@H](OC)[C@@]34[C@@H]5C[C@@]6(O)[C@H](OC(=O)c7ccccc7)[C@@H]5[C@@](OC(C)=O)([C@@H]([C@H](OC)[C@H]23)[C@@H]14)[C@@H](O)[C@@H]6OC	0.971 ± 0.025	0.837 ± 0.045
O=[N+]([O-])c1cc([As](=O)(O)O)ccc1O	0.97 ± 0.025	0.915 ± 0.15
COc1ccc(O)c(C(C)(C)C)c1.COc1ccc(O)cc1C(C)(C)C	0.982 ± 0.05	0.941 ± 0.028
C[C@]12CC[C@@H]3c4ccc(OC(=O)N(CCCl)CCCl)cc4CC[C@H]3[C@@H]1CC[C@@H]2O	0.99 ± 0.045	1.17 ± 0.083
[N-]=[N+]=CC(=O)OC[C@H](N)C(=O)O	0.882 ± 0.029	1.03 ± 0.032
N=C1NC(=O)N2CC12 (centres undefined)	1.051 ± 0.0073	0.853 ± 0.12
C[C@@H]1O[C@@H](O[C@H]2C[C@@H](O)[C@]3(CO)[C@H]4[C@H](O)C[C@]5(C)[C@@H](C6=CC(=O)OC6)CC[C@]5(O)[C@@H]4CC[C@]3(O)C2)[C@H](O)[C@H](O)[C@H]1O	1.01 ± 0.012	0.991 ± 0.034
CCC1(c2ccc(N)cc2)CCC(=O)NC1=O (centres undefined)	0.974 ± 0.021	1.07 ± 0.055
CCN(C)C(=O)Oc1cccc([C@H](C)N(C)C)c1	1.01 ± 0.022	0.504 ± 0.27
CC[C@@H](c1cccc(O)c1)[C@@H](C)CN(C)C	1.09 ± 0.081	0.708 ± 0.38
CN(C)C(=O)Oc1cc(OC(=O)N(C)C)cc(C(O)CNC(C)(C)C)c1 (centres undefined)	0.943 ± 0.049	0.833 ± 0.14

Compound	normalized intracellular growth (time point: T3 (3 h))	normalized intracellular growth (time point: Tfinal (~6 h))
CCn1cc(C(=O)O)c(=O)c2cc3c(cc21)OCO3	0.923 ± 0.032	0.192 ± 0.011
C[N+]1(C)[C@@H]2C[C@@H](OC(=O)[C@H](CO)c3ccccc3)C[C@H]1[C@@H]1O[C@@H]12	1.02 ± 0.041	1.15 ± 0.05
C#CC(C)(O)CC (centres undefined)	0.971 ± 0.038	0.758 ± 0.24
C[N+]1(C)CCCC(OC(=O)C(O)(c2ccccc2)c2ccccc2)C1 (centres undefined)	1.03 ± 0.032	0.939 ± 0.09
N[C@@H]1C[C@H]1c1ccccc1.N[C@H]1C[C@@H]1c1ccccc1	0.984 ± 0.028	1.01 ± 0.045
Oc1ccc(Cl)cc1Cc1cc(Cl)ccc1O	1.03 ± 0.02	0.859 ± 0.13
CC(O)CN1CCN(CC(=O)[O-])CCN(CC(=O)[O-])CCN(CC(=O)[O-])CC1.[Gd+3] (centres undefined)	0.946 ± 0.083	1.23 ± 0.098
CCCC(C)(COC(N)=O)COC(=O)NC(C)C (centres undefined)	1.02 ± 0.029	0.918 ± 0.025
COC(C)(C)CCC[C@H](C)C/C=C/C(C)=C/C(=O)OC(C)C	1.02 ± 0.024	0.902 ± 0.27
COc1ccc(OC)c(C(O)C(C)N)c1 (centres undefined)	1.11 ± 0.087	0.961 ± 0.058
CC([C@H](O)c1ccccc1)N(C)C (some centres undefined)	0.977 ± 0.096	1.08 ± 0.12
CCC(=O)O[C@H]1CC[C@H]2[C@@H]3CCC4=CC(=O)CC[C@]4(C)[C@H]3CC[C@]12C	0.96 ± 0.038	1.12 ± 0.042
CCC1(CC)C(=O)NC(=O)NC1=O	0.979 ± 0.094	0.778 ± 0.078
O=C1CCO1	0.995 ± 0.052	0.884 ± 0.13
c1ccc2c(c1)sc1ccccc12	1.03 ± 0.065	0.916 ± 0.1
O=P1(N(CCCl)CCCl)NCCCO1 (centres undefined)	1 ± 0.031	0.925 ± 0.072
CN1C(=O)CCS(=O)(=O)C1c1ccc(Cl)cc1 (centres undefined)	1.02 ± 0.056	0.864 ± 0.13
CC(=O)NC1CCSC1=O (centres undefined)	1.05 ± 0.023	1.13 ± 0.094
CNC(=O)Oc1ccccc1OC(C)C	1.02 ± 0.052	1.01 ± 0.13
C=CCC1(C(C)CCC)C(=O)NC(=S)NC1=O (centres undefined)	0.956 ± 0.066	0.965 ± 0.1
CCCCCCCCCCCCCCCC[n+]1ccccc1	1.121 ± 0.0093	1.31 ± 0.11
CCOP(=S)(OCC)Oc1nc(Cl)c(Cl)cc1Cl	1.03 ± 0.054	0.764 ± 0.061
CCOc1cc(C=O)ccc1O	0.976 ± 0.037	0.93 ± 0.11

Compound	normalized intracellular growth (time point: T3 (3 h))	normalized intracellular growth (time point: Tfinal (~6 h))
C=C1C[C@@H]2[C@H](CC[C@]3(C)C(=O)CC[C@@H]23)[C@@]2(C)C=CC(=O)C=C12	1 ± 0.047	1.05 ± 0.07
NP(N)(=O)NC(=O)c1ccc(F)cc1	1.09 ± 0.025	1.04 ± 0.11
CN1CCc2cc3c(cc2C1O)OCO3 (centres undefined)	1.11 ± 0.075	0.972 ± 0.2
COc1ccc(C(CN(C)C)C2(O)CCCCC2)cc1 (centres undefined)	1.01 ± 0.029	0.758 ± 0.24
CNC(=O)Oc1ccc2c(c1)[C@]1(C)CCN(C)[C@@H]1N2C	0.728 ± 0.068	0.913 ± 0.051
CN(C)C(=O)Oc1cccc([N+](C)(C)C)c1	0.998 ± 0.041	0.93 ± 0.015
CN1[C@H]2C[C@H](OC(=O)[C@H](CO)c3ccccc3)C[C@@H]1[C@@H](O)C2	1.01 ± 0.025	0.993 ± 0.025
CNC(C)(C)Cc1ccccc1	1.07 ± 0.097	1.22 ± 0.041
CCOP(=S)(OCC)Oc1cc(C)nc(C(C)C)n1	0.931 ± 0.039	0.917 ± 0.16
C[C@]12CCC(=O)C(O)=C1CC[C@@H]1[C@@H]2CC[C@]2(C)C(=O)CC[C@@H]12	0.9688 ± 0.0047	1.01 ± 0.081
CNCC(O)c1ccc(O)cc1 (centres undefined)	0.949 ± 0.04	0.946 ± 0.048
CC(C)C[C@H]1C(=O)N2CCC[C@H]2[C@]2(O)O[C@](NC(=O)[C@@H]3C=C4c5cccc6[nH]c(Br)c(c56)C[C@H]4N(C)C3)(C(C)C)C(=O)N12	0.978 ± 0.041	0.934 ± 0.071
CN1[C@@H]2CC[C@H]1C[C@@H](OC(=O)C(CO)c1ccccc1)C2 (some centres undefined)	1.05 ± 0.06	1.03 ± 0.12
Nc1ccc([As](=O)(O)O)cc1	0.997 ± 0.034	0.735 ± 0.11
CCCCCCCCC(=O)NCc1ccc(O)c(OC)c1	1.01 ± 0.035	0.99 ± 0.064
O=[N+]([O-])OCC(CO[N+](=O)[O-])O[N+](=O)[O-]	1.01 ± 0.044	0.68 ± 0.22
NCCCNCCSP(=O)(O)O	0.96 ± 0.035	1 ± 0.073
C#CCN(C)[C@H](C)Cc1ccccc1	1.1 ± 0.025	0.976 ± 0.32
C[C@@H]1O[C@@H](O[C@@H]2C=C3CC[C@@H]4[C@H](CC[C@]5(C)[C@@H](c6ccc(=O)oc6)CC[C@]45O)[C@@]3(C)CC2)[C@H](O)[C@H](O)[C@H]1O	1.01 ± 0.031	0.813 ± 0.17
CN(C)C(=O)Oc1ccc[n+](C)c1	0.796 ± 0.015	0.459 ± 0.0048
CC(=O)Nc1cc([As](=O)(O)O)ccc1O	1.1 ± 0.073	1.09 ± 0.02
O=c1[nH]c2ccccc2n1C1CCN(CCCC(c2ccc(F)cc2)c2ccc(F)cc2)CC1	0.967 ± 0.011	1.1 ± 0.027
CC(=O)[O][Hg][c]1ccccc1	0.575 ± 0.093	0.336 ± 0.15

Laid out differently: two of the compounds above
Compound | normalized intracellular growth (time point: T3 (3 h)) | normalized intracellular growth (time point: Tfinal (~6 h))
CO[C@]12C[C@@H](COC(=O)c3cncc(Br)c3)CN(C)[C@@H]1Cc1cn(C)c3cccc2c13 | 0.7 ± 0.05 | 0.918 ± 0.098
OC[C@@H](O)[C@H]1O[C@@H]2O[C@H](C(Cl)(Cl)Cl)O[C@@H]2[C@H]1O | 1.01 ± 0.039 | 1.07 ± 0.077
